US20260266848A1, “COMPOSITIONS AND METHODS FOR DIAGNOSING AND TREATING DYSTONIA” (Duke University, priority 2023, published 2026)

B1: EHD4 (protein, UniProt Q9H223 1-541, looked up)
EH domain-containing protein 4: MFSWMGRQAGGRERAGGADAVQTVTGGLRSLYLRKVLPLEEAYRFHEFHSPALEDADFENKPMILLVGQYSTGKTTFIRYLLEQDFPGMRIGPEPTTDSFIAVMYGETEGSTPGNALVVDPKKPFRKLSRFGNAFLNRFMCSQLPNQVLKSISVIDSPGILSGEKQRISRGYDFCQVLQWFAERVDRIILLFDAHKLDISDEFSEAIKAFRGQDDKIRVVLNKADQVDTQQLMRVYGALMWSLGKVINTPEVLRVYIGSFWAQPLQNTDNRRLFEAEAQDLFRDIQSLPQKAAVRKLNDLIKRARLAKVHAYIISYLKKEMPSVFGKENKKRELISRLPEIYIQLQREYQISAGDFPEVKAMQEQLENYDFTKFHSLKPKLIEAVDNMLSNKISPLMNLISQEETSTPTQLVQGGAFDGTTEGPFNQGYGEGAKEGADEEEWVVAKDKPVYDELFYTLSPINGKISGVNAKKEMVTSKLPNSVLGKIWKLADCDCDGMLDEEEFALAKHLIKIKLDGYELPSSLPPHLVPPSHRKSLPKAD
B2: SLC4A1 (protein, UniProt P02730 1-911, looked up)
Band 3 anion transport protein: MEELQDDYEDMMEENLEQEEYEDPDIPESQMEEPAAHDTEATATDYHTTSHPGTHKVYVELQELVMDEKNQELRWMEAARWVQLEENLGENGAWGRPHLSHLTFWSLLELRRVFTKGTVLLDLQETSLAGVANQLLDRFIFEDQIRPQDREELLRALLLKHSHAGELEALGGVKPAVLTRSGDPSQPLLPQHSSLETQLFCEQGDGGTEGHSPSGILEKIPPDSEATLVLVGRADFLEQPVLGFVRLQEAAELEAVELPVPIRFLFVLLGPEAPHIDYTQLGRAAATLMSERVFRIDAYMAQSRGELLHSLEGFLDCSLVLPPTDAPSEQALLSLVPVQRELLRRRYQSSPAKPDSSFYKGLDLNGGPDDPLQQTGQLFGGLVRDIRRRYPYYLSDITDAFSPQVLAAVIFIYFAALSPAITFGGLLGEKTRNQMGVSELLISTAVQGILFALLGAQPLLVVGFSGPLLVFEEAFFSFCETNGLEYIVGRVWIGFWLILLVVLVVAFEGSFLVRFISRYTQEIFSFLISLIFIYETFSKLIKIFQDHPLQKTYNYNVLMVPKPQGPLPNTALLSLVLMAGTFFFAMMLRKFKNSSYFPGKLRRVIGDFGVPISILIMVLVDFFIQDTYTQKLSVPDGFKVSNSSARGWVIHPLGLRSEFPIWMMFASALPALLVFILIFLESQITTLIVSKPERKMVKGSGFHLDLLLVVGMGGVAALFGMPWLSATTVRSVTHANALTVMGKASTPGAAAQIQEVKEQRISGLLVAVLVGLSILMEPILSRIPLAVLFGIFLYMGVTSLSGIQLFDRILLLFKPPKYHPDVPYVKRVKTWRMHLFTGIQIICLAVLWVVKSTPASLALPFVLILTVPLRRVLLPLIFRNVELQCLDADDAKATFDEEEGRDEYDEVAMPV
B3: PITPNB (protein, UniProt P48739 1-271, looked up)
Phosphatidylinositol transfer …: MVLIKEFRVVLPCSVQEYQVGQLYSVAEASKNETGGGEGIEVLKNEPYEKDGEKGQYTHKIYHLKSKVPAFVRMIAPEGSLVFHEKAWNAYPYCRTIVTNEYMKDDFFIKIETWHKPDLGTLENVHGLDPNTWKTVEIVHIDIADRSQVEPADYKADEDPALFQSVKTKRGPLGPNWKKELANSPDCPQMCAYKLVTIKFKWWGLQSKVENFIQKQEKRIFTNFHRQLFCWIDKWIDLTMEDIRRMEDETQKELETMRKRGSVRGTSAADV
B4: LRRC59 (protein, UniProt Q96AG4 1-307, looked up)
Leucine-rich …: MTKAGSKGGNLRDKLDGNELDLSLSDLNEVPVKELAALPKATILDLSCNKLTTLPSDFCGLTHLVKLDLSKNKLQQLPADFGRLVNLQHLDLLNNKLVTLPVSFAQLKNLKWLDLKDNPLDPVLAKVAGDCLDEKQCKQCANKVLQHMKAVQADQERERQRRLEVEREAEKKREAKQRAKEAQERELRKREKAEEKERRRKEYDALKAAKREQEKKPKKEANQAPKSKSGSRPRKPPPRKHTRSWAVLKLLLLLLLFGVAGGLVACRVTELQQQPLCTSVNTIYDNAVQGLRRHEILQWVLQTDSQQ
B5: GP1BB (protein, UniProt P13224 26-206, looked up)
Platelet glycoprotein Ib beta …: CPAPCSCAGTLVDCGRRGLTWASLPTAFPVDTTELVLTGNNLTALPPGLLDALPALRTAHLGANPWRCDCRLVPLRAWLAGRPERAPYRDLRCVAPPALRGRLLPYLAEDELRAACAPGPLCWGALAAQLALLGLGLLHALLLVLLLCRLRRLRARARARAAARLSLTDPLVAERAGTDES
B6: NECTIN1 (protein, UniProt Q15223 31-517, looked up)
Nectin-1: QVVQVNDSMYGFIGTDVVLHCSFANPLPSVKITQVTWQKSTNGSKQNVAIYNPSMGVSVLAPYRERVEFLRPSFTDGTIRLSRLELEDEGVYICEFATFPTGNRESQLNLTVMAKPTNWIEGTQAVLRAKKGQDDKVLVATCTSANGKPPSVVSWETRLKGEAEYQEIRNPNGTVTVISRYRLVPSREAHQQSLACIVNYHMDRFKESLTLNVQYEPEVTIEGFDGNWYLQRMDVKLTCKADANPPATEYHWTTLNGSLPKGVEAQNRTLFFKGPINYSLAGTYICEATNPIGTRSGQVEVNITEFPYTPSPPEHGRRAGPVPTAIIGGVAGSILLVLIVVGGIVVALRRRRHTFKGDYSTKKHVYGNGYSKAGIPQHHPPMAQNLQYPDDSDDEKKAGPLGGSSYEEEEEEEEGGGGGERKVGGPHPKYDEDAKRPYFTVDEAEARQDGYGDRTLGYQYDPEQLDLAENMVSQNDGSFISKKEWYV
B7: LYPLA1 (protein, UniProt O75608 1-230, looked up)
Acyl-protein thioesterase 1: MCGNNMSTPLPAIVPAARKATAAVIFLHGLGDTGHGWAEAFAGIRSSHIKYICPHAPVRPVTLNMNVAMPSWFDIIGLSPDSQEDESGIKQAAENIKALIDQEVKNGIPSNRIILGGFSQGGALSLYTALTTQQKLAGVTALSCWLPLRASFPQGPIGGANRDISILQCHGDCDPLVPLMFGSLTVEKLKTLVNPANVTFKTYEGMMHSSCQQEMMDVKQFIDKLLPPID
B8: SLC25A11 (protein, UniProt Q02978 2-314, looked up)
Mitochondrial …: AATASAGAGGIDGKPRTSPKSVKFLFGGLAGMGATVFVQPLDLVKNRMQLSGEGAKTREYKTSFHALTSILKAEGLRGIYTGLSAGLLRQATYTTTRLGIYTVLFERLTGADGTPPGFLLKAVIGMTAGATGAFVGTPAEVALIRMTADGRLPADQRRGYKNVFNALIRITREEGVLTLWRGCIPTMARAVVVNAAQLASYSQSKQFLLDSGYFSDNILCHFCASMISGLVTTAASMPVDIAKTRIQNMRMIDGKPEYKNGLDVLFKVVRYEGFFSLWKGFTPYYARLGPHTVLTFIFLEQMNKAYKRLFLSG
B9: PLEK (protein, UniProt P08567 1-350, looked up)
Pleckstrin: MEPKRIREGYLVKKGSVFNTWKPMWVVLLEDGIEFYKKKSDNSPKGMIPLKGSTLTSPCQDFGKRMFVFKITTTKQQDHFFQAAFLEERDAWVRDIKKAIKCIEGGQKFARKSTRRSIRLPETIDLGALYLSMKDTEKGIKELNLEKDKKIFNHCFTGNCVIDWLVSNQSVRNRQEGLMIASSLLNEGYLQPAGDMSKSAVDGTAENPFLDNPDAFYYFPDSGFFCEENSSDDDVILKEEFRGVIIKQGCLLKQGHRRKNWKVRKFILREDPAYLHYYDPAGAEDPLGAIHLRGCVVTSVESNSNGRKSEEENLFEIITADEVHYFLQAATPKERTEWIRAIQMASRTGK
B10: LMNB2 (protein, UniProt Q03252 1-617, looked up)
Lamin-B2: MSPPSPGRRREQRRPRAAATMATPLPGRAGGPATPLSPTRLSRLQEKEELRELNDRLAHYIDRVRALELENDRLLLKISEKEEVTTREVSGIKALYESELADARRVLDETARERARLQIEIGKLRAELDEVNKSAKKREGELTVAQGRVKDLESLFHRSEVELAAALSDKRGLESDVAELRAQLAKAEDGHAVAKKQLEKETLMRVDLENRCQSLQEELDFRKSVFEEEVRETRRRHERRLVEVDSSRQQEYDFKMAQALEELRSQHDEQVRLYKLELEQTYQAKLDSAKLSSDQNDKAASAAREELKEARMRLESLSYQLSGLQKQASAAEDRIRELEEAMAGERDKFRKMLDAKEQEMTEMRDVMQQQLAEYQELLDVKLALDMEINAYRKLLEGEEERLKLSPSPSSRVTVSRATSSSSGSLSATGRLGRSKRKRLEVEEPLGSGPSVLGTGTGGSGGFHLAQQASASGSVSIEEIDLEGKFVQLKNNSDKDQSLGNWRIKRQVLEGEEIAYKFTPKYILRAGQMVTVWAAGAGVAHSPPSTLVWKGQSSWGTGESFRTVLVNADGEEVAMRTVKKSSVMRENENGEEEEEEAEFGEEDLFHQQGDPRTTSRGC

System: DYT1 patient plasma derived EVs
Test: Plasma-derived EV proteomics (ExoQuick ULTRA, DIA LC/MS/MS), DYT1 vs Healthy Controls
Set-up: species or system human
Conditions: DYT1 patients as compared to healthy controls
Description: Data was obtained for extracellular vesicles using previously acquired samples. The ExoQuick® ULTRA EV Isolation System was used to fractionate and enrich EVs from plasma. Isolated plasma EV samples were then submitted to proteomic analysis by the Duke Proteomics and Metabolomics Core Facility (DPMCF). At the DPMCF, quantitative (LC/MS/MS) was performed on 500 ng of each sample, using an EvoSep One UPLC system coupled to a Thermo Orbitrap Astral high-resolution accurate mass tandem mass spectrometer (Thermo). Briefly, the sample was eluted directly from an Evotip which was subjected to a low organic wash and then subjected to an analytical separation using a 1.7 μm EvoSep 150 um ID×15 cm endurance (EveoSep) column running an SPD30 gradient from approximately 5 to 30% acetonitrile with 0.1% formic acid with a column temperature of 50 C. Data collection on the Orbitrap Astral mass spectrometer was performed in a data-independent acquisition (DIA) mode of acquisition with a r=240,000 (@m/z 200) full MS scan from m/z 380-980 with a target AGC value of 4e5 ions. Fixed DIA, windows of 4 m/z from m/z 380 to 980 DIA MS/MS scans were acquired in the Astral with a target AGC value of 5e4 and a max fill time of 6 ms. HCD collision energy setting of 27% was used for all MS2 scans.

First: B1
Second: B2
The Log2FC of the first is lower: −2.1126 for the first, 2.2980 for the second.

Same assay, conditions: Hs. Plasma EVs (DYT1/WT)

With B1 the Directionality was “DOWN”.
For B3, the Directionality was “DOWN”.
For B4, the Directionality was “DOWN”.

Same assay, conditions: Hs. Plasma EVs (DYT1/WT); protein level, human patient derived EVs by genotype

First: B1
Second: B3
The Log2_FC of the first is lower: -2.113 for the first, -1.064 for the second.

B4 gave a Log2_FC of -0.8011.

Same assay, conditions: directionality of protein change, human plasma derived EVs, DYT1 vs WT(HC)

With B1 the “Hs. Plasma EVs (DYT1/WT)” value was “DOWN”.
With B3 the “Hs. Plasma EVs (DYT1/WT)” value was “DOWN”.
B4 was tested, and the “Hs. Plasma EVs (DYT1/WT)” value was “DOWN”.

Same assay, conditions: protein abundance, DYT1 patients

Going from B5 to B1, the “Mean DYT1” value rises from 6.766 to 8.194.

Compared with B6, B7 is higher in “Mean DYT1” value: 6.641 for the first, 8.175 for the second.

Compared with B2, B3 is lower in “Mean DYT1” value: 9.918 for the first, 4.149 for the second.

Going from B8 to B9, the “Mean DYT1” value rises from −1.129 to 6.963.

Going from B10 to B4, the “Mean DYT1” value falls from 3.328 to 1.966.

Same assay, conditions: protein abundance, healthy controls (HC)

First: B5
Second: B1
The “Mean HC” value of the first is lower: 5.43 for the first, 10.31 for the second.

First: B6
Second: B7
The “Mean HC” value of the first is lower: 4.67 for the first, 9.55 for the second.

Compared with B2, B3 is lower in “Mean HC” value: 7.62 for the first, 5.21 for the second.

Going from B8 to B9, the “Mean HC” value rises from 0.20 to 5.76.

Compared with B10, B4 is lower in “Mean HC” value: 4.13 for the first, 2.77 for the second.
